Among the data in publication PMC3778009 are binding result, binding signal (fraction of ss60-mer retention) and binding signal (reference for ss30-mer retention) values, retold here.

Series [1] relates to T1, tagged human MEIOB (HEK-293 lysate) (human).
T1 sequence (looked up, limits assumed): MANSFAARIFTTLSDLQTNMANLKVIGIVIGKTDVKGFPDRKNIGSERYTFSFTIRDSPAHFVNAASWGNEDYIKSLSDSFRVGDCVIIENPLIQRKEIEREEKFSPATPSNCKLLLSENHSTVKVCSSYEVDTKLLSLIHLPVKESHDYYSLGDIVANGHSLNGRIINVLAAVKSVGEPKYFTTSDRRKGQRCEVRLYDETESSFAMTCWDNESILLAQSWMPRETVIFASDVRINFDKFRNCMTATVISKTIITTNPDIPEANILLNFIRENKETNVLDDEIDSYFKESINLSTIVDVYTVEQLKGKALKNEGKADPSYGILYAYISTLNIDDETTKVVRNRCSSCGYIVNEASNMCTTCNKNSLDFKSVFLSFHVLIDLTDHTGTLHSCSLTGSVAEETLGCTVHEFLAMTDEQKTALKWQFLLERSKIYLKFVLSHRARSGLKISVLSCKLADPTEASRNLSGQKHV
Put plainly: pull-down. The settings on record: 10 ug/ml BSA, 1 mM EDTA, 1 h at 4 C, protein in a lysate after overexpression, label: biotin.

Series [2] deals with T2, endogenous MEIOB (testis extract) (UniProt Q9D513).
T2 sequence (looked up, limits assumed): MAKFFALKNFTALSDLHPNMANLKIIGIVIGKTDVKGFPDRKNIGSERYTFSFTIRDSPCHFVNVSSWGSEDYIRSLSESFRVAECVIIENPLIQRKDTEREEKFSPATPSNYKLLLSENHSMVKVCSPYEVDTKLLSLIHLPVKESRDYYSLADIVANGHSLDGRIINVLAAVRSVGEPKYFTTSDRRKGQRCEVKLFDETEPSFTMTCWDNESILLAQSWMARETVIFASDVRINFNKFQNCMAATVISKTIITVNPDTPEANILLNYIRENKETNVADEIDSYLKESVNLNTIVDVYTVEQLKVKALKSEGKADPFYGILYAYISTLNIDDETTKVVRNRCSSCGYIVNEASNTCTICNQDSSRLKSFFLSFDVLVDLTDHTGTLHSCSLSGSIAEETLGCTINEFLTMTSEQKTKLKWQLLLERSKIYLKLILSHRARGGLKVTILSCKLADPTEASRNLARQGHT
Put plainly: pull-down. The settings on record: 10 ug/ml BSA, 1 mM EDTA, 1 h at 4 C, protein in an extract, label: biotin.

Where [3] appears, read: 3' BiotinTEG on strand 1, BSA 5 mg/ml (cell-free) or 10 ug/ml (extracts).
The mark [4] stands for this setting: 3' BiotinTEG, BSA 5 mg/ml (cell-free) or 10 ug/ml (extracts), single-stranded DNA.

Construct, isoform or probe ends are uncertain for at least one entry. At least one result comes from cells or an extract, where the contact may be indirect. Weaker means in comparison with the reference protein, sequence or condition of that experiment. At least one verdict was read from the data and is not stated in words by the source. Protein sequences can lack the tags named with them. For part of these data: The direction of at least one scale is not stated here.

For “GATCTGCACGACGCACACCGGACGTATCTGCTATCGCTCATGTCAACCGCTCAAGCTGC (double strand) [ds60-mer]”, the binding result in series [1] (setting [3]) and in series [2] (setting [3]) was “binds more weakly” in each case.

Turning to “GATCTCAGCGATTCACACGCGTCCTAACTCG [ss30-mer 2]”, in series [1] (setting [4]), the binding result was “binds more weakly”. In series [2] (setting [4]), this sequence displayed a binding signal (fraction of ss60-mer retention) of 0.5.

Take “GATCTGCACGACGCACACCGGACGTATCTGCTATCGCTCATGTCAACCGCTCAAGCTGC [ss60-mer]”: in series [1] (setting [4]), the binding result is given as “binds”. Besides, the binding signal (reference for ss30-mer retention) in series [2] (setting [4]) came out at 1.
